Results: US7615609 (dated 2009)

Key:
[1] = Fmoc solid-phase peptide synthesis; 4-(Chloro(diphenyl)methyl)benzoyl aminomethyl polystyrene resin; DICI/HOBt; details: whole synthesis, HPLC (% b.a., (F)-HPLC)
[2] = peptide synthesis; details: HPLC (% b.a., (F)-HPLC)

## H-Tyr(Bzl)-Phe-(2S,4R)-4-(Boc-NH—CH2—CH2—NH—CO—O)-Pro-Phg-D-Trp(Boc)Lys(Boc)-OH
[1]; scale 4.0 g peptide resin
  crude HPLC purity: 95.2%
[1]; scale 6.2 g peptide resin
  crude HPLC purity: 92.6%
[1]; scale 24.5 g peptide resin
  crude HPLC purity: 91.6%

## Z-Phe-[(2S,4R)-4-(Boc-N H—CH2—CH2—NH—CO—O)]-Pro-Phg-D-Trp-Lys(BOC)-OMe
[2]; coupling step
  crude HPLC purity: 97.2%

## H-[(2S,4R)-4-(Boc-NH—CH2—CH2—NH—CO—O)]-Pro-Phg-D-Trp-Lys(BOC)-OMe
[2]; late stage modification step
  crude HPLC purity: 97.0%

## Z-[(2S,4R)-4-(Boc-NH—CH2—CH2—NH—CO—O)]-Pro-Phg-D-Trp-Lys(BOC)-OMe
[2]; coupling step
  crude HPLC purity: 91.0%

## H-Tyr(Bzl)-Phe-(2S,4R)-4-(Boc-NH—CH2—CH2—NH—CO—O)-Pro-Phg-D-Trp-Lys(Boc)-OH
[2]; late stage modification step
  final HPLC purity: 87.5%

## FMOC-Tyr(Bzl)-Phe-[(2S,4R)-4-(BOC-NH—CH2—CH2—NH—CO—O)]-Pro-Phg-D-Trp-Lys(BOC)-OMe
[2]; coupling step
  crude HPLC purity: 95.4%

## (H-Phe-[(2S,4R)-4-(Boc-NH—CH2—CH2—NH—CO—O)]-Pro-Phg-D-Trp-Lys(BOC)-OMe)
[2]; late stage modification step
  crude HPLC purity: 93.1%
